Reference: article PMC11176168
No constants are given. Whether binding was seen depends on the method and setting. Binding seen in cells or lysates may run through a third protein.

Amino acid sequences for entries named in this document (tags omitted). A change or cut given only in a name is not applied to a line headed by its entry. Residues count along the entry.
UniProt Q6UX06, residues 21-510: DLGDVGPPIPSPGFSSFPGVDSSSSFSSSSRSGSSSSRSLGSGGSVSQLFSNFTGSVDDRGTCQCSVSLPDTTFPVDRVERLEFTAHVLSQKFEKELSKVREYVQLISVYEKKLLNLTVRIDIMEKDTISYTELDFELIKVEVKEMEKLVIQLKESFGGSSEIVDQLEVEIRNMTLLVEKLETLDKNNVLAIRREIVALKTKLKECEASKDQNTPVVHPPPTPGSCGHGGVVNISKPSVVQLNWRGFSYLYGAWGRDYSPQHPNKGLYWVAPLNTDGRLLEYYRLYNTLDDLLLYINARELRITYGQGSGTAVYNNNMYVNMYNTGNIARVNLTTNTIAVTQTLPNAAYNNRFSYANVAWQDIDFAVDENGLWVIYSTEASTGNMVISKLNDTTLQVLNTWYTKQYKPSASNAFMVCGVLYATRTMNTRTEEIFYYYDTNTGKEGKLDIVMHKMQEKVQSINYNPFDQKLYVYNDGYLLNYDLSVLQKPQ
UniProt P02750: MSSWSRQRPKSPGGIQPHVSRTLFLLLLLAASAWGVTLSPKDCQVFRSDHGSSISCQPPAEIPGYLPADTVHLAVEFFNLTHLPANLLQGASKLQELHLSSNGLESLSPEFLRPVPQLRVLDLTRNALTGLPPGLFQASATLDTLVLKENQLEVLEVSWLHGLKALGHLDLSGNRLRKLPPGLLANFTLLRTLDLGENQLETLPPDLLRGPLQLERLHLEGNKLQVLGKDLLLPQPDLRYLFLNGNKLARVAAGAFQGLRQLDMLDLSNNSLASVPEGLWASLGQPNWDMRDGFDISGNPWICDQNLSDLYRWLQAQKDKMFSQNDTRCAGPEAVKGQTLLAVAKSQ

Target: Olfactomedin 4 (OLFM4), full-length (UniProt Q6UX06)
Experiment: co-IP; U266 cells transfected with HA- or Flag-tagged expression plasmids for 48 h; lysate (1 mg) with anti-HA or anti-Flag antibody (10 μg) and protein A/G magnetic beads overnight at 4 °C, four washes with lysis buffer, Western blot; for LRG1 and OLFM4 also with cells treated with TGF-β

binding: no binding
Substance: LRG1Δ2 (1–12, 264–310 aa) (from UniProt P02750) (domain or fragment)
